Results taken from paper PMC4501846.
Results are given in words; binding and its absence hold for the method and conditions named. Binding seen in cells or lysates may run through a third protein. Some results given as binding are weak or reduced against the parent protein; the word gives no strength.

Chains of the proteins cited; added tags and fusions are not shown.
UniProt Q924T7: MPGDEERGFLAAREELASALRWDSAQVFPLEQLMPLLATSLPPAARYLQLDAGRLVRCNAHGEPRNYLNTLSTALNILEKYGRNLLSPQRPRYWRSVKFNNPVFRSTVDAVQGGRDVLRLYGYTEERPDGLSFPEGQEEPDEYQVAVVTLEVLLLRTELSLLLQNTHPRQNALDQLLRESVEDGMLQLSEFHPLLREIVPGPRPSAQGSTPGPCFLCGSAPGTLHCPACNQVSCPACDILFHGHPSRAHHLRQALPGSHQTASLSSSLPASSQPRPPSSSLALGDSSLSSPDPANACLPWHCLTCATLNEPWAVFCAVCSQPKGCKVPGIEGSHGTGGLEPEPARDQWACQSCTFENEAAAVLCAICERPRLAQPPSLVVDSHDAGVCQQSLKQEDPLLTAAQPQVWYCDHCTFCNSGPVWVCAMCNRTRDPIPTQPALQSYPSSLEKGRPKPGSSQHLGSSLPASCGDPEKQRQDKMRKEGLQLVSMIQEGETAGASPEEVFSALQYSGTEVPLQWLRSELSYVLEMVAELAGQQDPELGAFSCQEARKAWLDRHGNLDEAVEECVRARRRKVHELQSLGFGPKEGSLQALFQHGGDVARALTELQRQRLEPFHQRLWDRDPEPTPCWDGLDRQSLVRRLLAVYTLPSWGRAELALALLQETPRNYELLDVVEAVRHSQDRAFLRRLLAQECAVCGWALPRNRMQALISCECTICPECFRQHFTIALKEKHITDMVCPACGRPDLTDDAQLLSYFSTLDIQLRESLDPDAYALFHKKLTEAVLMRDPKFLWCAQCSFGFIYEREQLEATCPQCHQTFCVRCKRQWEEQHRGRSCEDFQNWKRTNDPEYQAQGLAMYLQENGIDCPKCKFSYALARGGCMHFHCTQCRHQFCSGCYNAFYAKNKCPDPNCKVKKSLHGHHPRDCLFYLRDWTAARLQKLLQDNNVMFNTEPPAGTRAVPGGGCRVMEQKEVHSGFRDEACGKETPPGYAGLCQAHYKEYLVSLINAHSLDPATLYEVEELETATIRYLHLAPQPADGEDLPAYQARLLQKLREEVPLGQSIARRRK

Biological target: full-length FLAG-HOIP (UniProt Q924T7)
Experiment: co-IP; A20.2J HOIP−/− cells reconstituted with full-length FLAG-HOIP, stimulated with α-IgG for the indicated times; modified RIPA lysate; IP with agarose-conjugated α-FLAG, immunoblot for BCL10; interaction called BCR activation-dependent

B1: BCL10 (protein, UniProt Q9Z0H7 1-233)
chain: MEAPAPSLTEEDLTEVKKDALENLRVYLCEKIIAERHFDHLRAKKILSREDTEEISCRTSSRKRAGKLLDYLQENPRGLDTLVESIRREKTQSFLIQKITDEVLKLRNIKLEHLKGLKCSSCEPFAAGATNNLSRCNSDESNLSEKQRASTVMYHPEGESSTAPFFSMASSLNLPVLEVGRTENSSFSSATLPRPGDPGAPPLPPDLRLEEGGSCGNSSEMFLPLRSRALSRQ
binding: binds
